From the supplement of paper PMC8728848
Some of the results follow.

How the values were obtained:
Assay in all cases: glycan array binding signal (z-score within array); higher = stronger binding
Conditions in all cases: glycan notation: IUPAC condensed, linker removed
[1] = target: Fuc(a1-2)[Gal(a1-3)]Gal(b1-4)GlcNAc(b1-2)Man(a1-3)[Fuc(a1-2)[Gal(a1-3)]Gal(b1-4)GlcNAc(b1-2)Man(a1-6)]Man(b1-4)GlcNAc(b1-4)GlcNAc
In short: (§1)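 The binding signal is a Z-score computed within each array. Data were drawn from 3228 arrays in the Consortium for Functional Glycomics database, restricted to those with a known protein sequence. Scores were averaged over arrays of the same protein sequence at different concentrations or buffers, and over linkers, and negative values can be taken as non-binding.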

[2] = target: Fuc(a1-2)[Gal(a1-3)]Gal(b1-4)GlcNAc(b1-2)Man(a1-3)[Fuc(a1-2)[Gal(a1-3)]Gal(b1-4)GlcNAc(b1-2)Man(a1-6)]Man(b1-4)GlcNAc(b1-4)[Fuc(a1-6)]GlcNAc
In short: as §1

[3] = target: Fuc(a1-2)[Gal(a1-3)]Gal(b1-4)GlcNAc(b1-3)GalNAc
In short: as §1

[4] = target: Fuc(a1-2)[Gal(a1-3)]Gal(b1-4)GlcNAc(b1-6)GalNAc
In short: as §1

[5] = target: Fuc(a1-2)[Gal(a1-3)]Gal(b1-4)[Fuc(a1-3)]Glc
In short: as §1

[6] = target: Fuc(a1-2)[Gal(a1-3)]Gal(b1-4)[Fuc(a1-3)]GlcNAc
In short: as §1

[7] = target: Fuc(a1-2)[Gal(a1-3)]Gal(b1-4)[Fuc(a1-3)]GlcNAc(b1-3)GalNAc
In short: as §1

[8] = target: Fuc(a1-2)[Gal(a1-4)]Gal(b1-4)GlcNAc
In short: as §1

[9] = target: Fuc(a1-2)[GalNAc(a1-3)]Gal
In short: as §1

[10] = target: Fuc(a1-2)[GalNAc(a1-3)]Gal(b1-3)GalNAc(a1-3)[Fuc(a1-2)]Gal(b1-4)GlcNAc
In short: as §1

[11] = target: Fuc(a1-2)[GalNAc(a1-3)]Gal(b1-3)GalNAc(b1-3)Gal(a1-4)Gal(b1-4)Glc
In short: as §1

[12] = target: Fuc(a1-2)[GalNAc(a1-3)]Gal(b1-3)GlcNAc
In short: as §1

[13] = target: Fuc(a1-2)[GalNAc(a1-3)]Gal(b1-3)GlcNAc(b1-2)Man(a1-3)[Fuc(a1-2)[GalNAc(a1-3)]Gal(b1-3)GlcNAc(b1-2)Man(a1-6)]Man(b1-4)GlcNAc(b1-4)GlcNAc
In short: as §1

[14] = target: Fuc(a1-2)[GalNAc(a1-3)]Gal(b1-3)GlcNAc(b1-2)Man(a1-3)[Fuc(a1-2)[GalNAc(a1-3)]Gal(b1-3)GlcNAc(b1-2)Man(a1-6)]Man(b1-4)GlcNAc(b1-4)[Fuc(a1-6)]GlcNAc
In short: as §1

[15] = target: Fuc(a1-2)[GalNAc(a1-3)]Gal(b1-3)GlcNAc(b1-3)GalNAc
In short: as §1

[16] = target: Fuc(a1-2)[GalNAc(a1-3)]Gal(b1-3)GlcNAc(b1-6)GalNAc
In short: as §1

[17] = target: Fuc(a1-2)[GalNAc(a1-3)]Gal(b1-4)Glc
In short: as §1

[18] = target: Fuc(a1-2)[GalNAc(a1-3)]Gal(b1-4)GlcNAc
In short: as §1

[19] = target: Fuc(a1-2)[GalNAc(a1-3)]Gal(b1-4)GlcNAc(b1-2)Man
In short: as §1

[20] = target: Fuc(a1-2)[GalNAc(a1-3)]Gal(b1-4)GlcNAc(b1-2)Man(a1-3)[Fuc(a1-2)[GalNAc(a1-3)]Gal(b1-4)GlcNAc(b1-2)Man(a1-6)]Man(b1-4)GlcNAc(b1-4)GlcNAc
In short: as §1

[21] = target: Fuc(a1-2)[GalNAc(a1-3)]Gal(b1-4)GlcNAc(b1-2)Man(a1-3)[Fuc(a1-2)[GalNAc(a1-3)]Gal(b1-4)GlcNAc(b1-2)Man(a1-6)]Man(b1-4)GlcNAc(b1-4)[Fuc(a1-6)]GlcNAc
In short: as §1

[22] = target: Fuc(a1-2)[GalNAc(a1-3)]Gal(b1-4)GlcNAc(b1-3)Gal(b1-4)GlcNAc
In short: as §1

[23] = target: Fuc(a1-2)[GalNAc(a1-3)]Gal(b1-4)GlcNAc(b1-3)Gal(b1-4)GlcNAc(b1-3)Gal(b1-4)GlcNAc
In short: as §1

[24] = target: Fuc(a1-2)[GalNAc(a1-3)]Gal(b1-4)GlcNAc(b1-3)GalNAc
In short: as §1

[25] = target: Fuc(a1-2)[GalNAc(a1-3)]Gal(b1-4)GlcNAc(b1-3)[Fuc(a1-2)[GalNAc(a1-3)]Gal(b1-4)GlcNAc(b1-6)]GalNAc
In short: as §1

[26] = target: Fuc(a1-2)[GalNAc(a1-3)]Gal(b1-4)GlcNAc(b1-6)GalNAc
In short: as §1

[27] = target: Fuc(a1-2)[GalNAc(a1-3)]Gal(b1-4)[Fuc(a1-3)]GlcNAc
In short: as §1

[28] = target: Fuc(a1-2)[GalNAc(a1-3)]Gal(b1-4)[Fuc(a1-3)]GlcNAc(b1-3)GalNAc
In short: as §1

[29] = target: Fuc(a1-2)[GalNAc(a1-4)]Gal(b1-4)GlcNAc
In short: as §1

[30] = target: Fuc(a1-2)[GalNAc(b1-3)]Gal
In short: as §1

Fuc(a1-3)GlcNAc = target: Fuc(a1-3)GlcNAc
In short: as §1

[31] = target: Fuc(a1-3)[Gal(b1-4)]Glc6S
In short: as §1

[32] = target: Fuc(a1-3)[Gal(b1-4)]GlcNAc
In short: as §1

[33] = target: Fuc(a1-3)[Gal(b1-4)]GlcNAc(b1-2)Man
In short: as §1

[34] = target: Fuc(a1-3)[Gal(b1-4)]GlcNAc(b1-2)Man(a1-3)[Fuc(a1-3)[Gal(b1-4)]GlcNAc(b1-2)Man(a1-6)]Man(b1-4)GlcNAc(b1-4)GlcNAc
In short: as §1

[35] = target: Fuc(a1-3)[Gal(b1-4)]GlcNAc(b1-2)Man(a1-3)[Fuc(a1-3)[Gal(b1-4)]GlcNAc(b1-2)Man(a1-6)]Man(b1-4)GlcNAc(b1-4)[Fuc(a1-6)]GlcNAc
In short: as §1

[36] = target: Fuc(a1-3)[Gal(b1-4)]GlcNAc(b1-3)Gal(b1-3)[Fuc(a1-4)]GlcNAc
In short: as §1

B1: AntigenI/IIC123 (Streptococcus mutans), C9E3B4 (protein)
chain: MASMTGGQQMGRIHFHYFKLAVQPQVNKEIRNNNDINIDRTLVAKQSVVKFQLKTADLPAGRDETTSFVLVDPLPSGYQFNPEATKAASPGFDVTYDNATNTVTFKATAATLATFNADLTKSVATIYPTVVGQVLNDGATYKNNFTLTVNDAYGIKSNVVRVTTPGKPNDPDNPNNNYIKPTKVNKNENGVVIDGKTVLAGSTNYYELTWDLDQYKNDRSSADTIQKGFYYVDDYPEEALELRQDLVKITDANGNEVTGVSVDNYTNLEAAPQEIRDVLSKAGIRPKGAFQIFRADNPREFYDTYVKTGIDLKIVSPMVVKKQMGQTGGSYENQAYQIDFGNGYASNIIINNVPKINPKKDVTLTLDPADTNNVDGQTIPLNTVFNYRLIGGIIPADHSEELFEYNFYDDYDQTGDHYTGQYKVFAKVDITFKDGSIIKSGAELTQYTTAEVDTAKGAITIKFKEAFLRSVSIDSAFQAESYIQMKRIAVGTFENTYINTVNGVTYSSLEHHHHHH
[1]
  glycan array binding signal (z-score): 1.57
[2]
  glycan array binding signal (z-score): -0.093
[3]
  glycan array binding signal (z-score): -0.914
[4]
  glycan array binding signal (z-score): -0.838
[5]
  glycan array binding signal (z-score): -0.437
[6]
  glycan array binding signal (z-score): -0.318
[7]
  glycan array binding signal (z-score): 0.247
[8]
  glycan array binding signal (z-score): 0.108
[9]
  glycan array binding signal (z-score): -0.896
[10]
  glycan array binding signal (z-score): -0.867
[11]
  glycan array binding signal (z-score): -0.644
[12]
  glycan array binding signal (z-score): -0.781
[13]
  glycan array binding signal (z-score): -0.012
[14]
  glycan array binding signal (z-score): 1.14
[15]
  glycan array binding signal (z-score): 2.85
[16]
  glycan array binding signal (z-score): -0.614
[17]
  glycan array binding signal (z-score): -0.076
[18]
  glycan array binding signal (z-score): -0.789
[19]
  glycan array binding signal (z-score): -0.357
[20]
  glycan array binding signal (z-score): -0.028
[21]
  glycan array binding signal (z-score): 0.373
[22]
  glycan array binding signal (z-score): -0.941
[23]
  glycan array binding signal (z-score): 2.42
[24]
  glycan array binding signal (z-score): -0.86
[25]
  glycan array binding signal (z-score): -0.412
[26]
  glycan array binding signal (z-score): 0.022
[27]
  glycan array binding signal (z-score): 0.143
[28]
  glycan array binding signal (z-score): 2.63
[29]
  glycan array binding signal (z-score): -0.213
[30]
  glycan array binding signal (z-score): -0.66
Fuc(a1-3)GlcNAc
  glycan array binding signal (z-score): -1.06
[31]
  glycan array binding signal (z-score): 0.785
[32]
  glycan array binding signal (z-score): 0.506
[33]
  glycan array binding signal (z-score): 0.809
[34]
  glycan array binding signal (z-score): -0.441
[35]
  glycan array binding signal (z-score): 1.75
[36]
  glycan array binding signal (z-score): 0.345
